# Laboratory results taken from patent US20180319855A1, “GENETICALLY MUTATED AEQUORIN-BASED BIOSENSORS WITH EXTRA SENSITIVITY TO CALCIUM AND IMPROVED BIOLUMINESCENCE INTENSITY” (CENTRE NATIONAL DE LA RECHERCHE SCIENTIFIQUE (CNRS), priority 2015, published 2018).
# B1: Redq/QT + AD: aporedquorin mutant Q159T + A123D (SEQ ID NO:25) (protein)
# chain: MVSKGEEVIKEFMRFKVRMEGSMNGHEFEIEGEGEGRPYEGTQTAKLKVTKGGPLPFAWDILSPQFMYGSKAYVKHPADIPDYKKLSFPEGFKWERVMNFEDGGLVTVTQDSSLQDGTLIYKVKMRGTNFPPDGPVMQKKTMGWEASTERLYPRDGVLKGEIHQALKLKDGGHYLVEFKTIYMAKKPVQLPGYYYVDTKLDITSHNEDYTIVEQYERSEGRHHLFLGHGTGSTGSGSSGTASSEDNNMAVIKEFMRFKVRMEGSMNGHEFEIEGEGEGRPYEGTQTAKLKVTKGGPLPFAWDILSPQFMYGSKAYVKHPADIPDYKKLSFPEGFKWERVMNFEDGGLVTVTQDSSLQDGTLIYKVKMRGTNFPPDGPVMQKKTMGWEASTERLYPRDGVLKGEIHQALKLKDGGHYLVEFKTIYMAKKPVQLPGYYYVDTKLDITSHNEDYTIVEQYERSEGRHHLFLSGFDNPRWIGRHKHMFNFLDVNHNGKISLDEMVYKASDIVINNLGATPEQAKRHKDAVEAFFGGAGMKYGVETDWPAYIEGWKKLATDELEKYAKNEPTLIRIWGDALFDIVDKDQNGDITLDEWKAYTKAAGIIQSSEDCEETFRVCDIDESGTLDVDEMTRQHLGFWYTMDPACEKLYGGAVP
# modifications: mutant aequorin
# B2: Redq/QD + AT: aporedquorin mutant Q159D + A179T (SEQ ID NO:23) (protein)
# chain: B1 chain with D587A, T623D, A643T
# modifications: mutant aequorin
# B3: Redq/Q159T: aporedquorin (tdTomato-aequorin fusion) mutant Q159T (SEQ ID NO:22) (protein)
# chain: B1 chain with D587A
# modifications: mutant aequorin
# B4: Redq/Q159D: aporedquorin (tdTomato-aequorin fusion) mutant Q159D (SEQ ID NO:21) (protein)
# chain: B1 chain with D587A, T623D
# modifications: mutant aequorin
# System: not listed separately
# Experiment: Spectral measurement of bioluminescence emission
# Format: physicochemical
# Conditions: CLZ-f; redquorin series, CitA, GA
# Protocol: Spectral Measurement and Analysis.
# Fifteen microliter aliquot of photoprotein samples was brought in contact with 200 μl saturating calcium solution (50 mM Tris-HCl, 100 mM CaCl2, pH 7.5) in a PCR tube to induce light emission. Emitted photons were collected via an optic fiber, guided into a spectrometer (Specim), and captured by an EM-CCD camera (Andor DU-897 back illuminated). Spectral calibration was performed using laser pointers (405 and 650 nm). This home-made setup, from the lab of Prof. Philippe Brûlet, allowed immediate and synchronous spectral analysis (no scanning) of emitted luminescence with 1-nm resolution (Curie et al. 2007).
row,Molecule,Spectral emission peak
1,B1,582 nm
2,B2,582 nm
3,B3,582 nm
4,B4,582 nm

# Same assay, conditions: CLZ-native; redquorin series, CitA, GA
row,Molecule,Spectral emission peak
1,B1,582 nm
2,B2,582 nm
3,B3,582 nm
4,B4,582 nm

# System: endogenous P2Y2 receptor
# Experiment: Assay of activation of endogenous P2Y2 receptor by ATP in CHO cells stably expressing photoproteins
# Format: cell-based
# Conditions: ATP at maximum and minimum response levels
# Protocol: Stably prepared CHO cells were loaded with 5 μM coelenterazine in 130 mM NaCl, 5 mM KCl, 1 mM MgCl2, 2 mM CaCl2, 5 mM NaHCO3, 20 mM N-(2-hydroxyethyl) piperazine-N′-ethanesulfonic acid (HEPES), pH 7.4 for 4 h at ambient temperature.
# To produce stable CHO cell lines, the cells transfected with GA and Redquorin variant plasmids were seeded on six-well plates and grown in the same medium with addition of Geneticin sulfate (G418) (Gibco, UK) at 1 mg/ml under the same conditions with replacement of the medium by fresh medium every 2 days. After 7-10 days of selection, CHO cells were transferred into a medium without antibiotic. To select clones with the highest bioluminescence activity, one run of limiting dilution was performed. CHO cells after G418 selection were seeded on 96-well plates (approximately 0.5 cells per well) and grown in DMEM/F12 medium supplemented with 10% fetal calf serum at 37° C., 5% CO2 for up to 80-90% confluence. Before the bioluminescence measurements, the plates with monoclones of CHO cells expressing the corresponding photoprotein were duplicated and grown for up to 90-100% confluence. Then, the medium was removed and cells were loaded with coelenterazine, and bioluminescence in each well was measured according to the procedure described earlier. As a result, the CHO cell clones with the highest bioluminescence activity were selected.
# Assay of Activation of Endogenous P2Y2 Receptor in CHO Cells
# The CHO cell lines stably expressing each photoprotein were used in assay of activation of endogenous P2Y2 receptor by ATP. The day before the measurements, the corresponding cells were seeded on 96-well plates with DMEM/F12 medium supplemented with 10% fetal calf serum and were grown at 37° C. with 5% CO2 for up to 90-100% confluence. Then, the medium was replaced by 100 μl of coelenterazine solution per well (5 μM coelenterazine in 130 mM NaCl, 5 mM KCl, 1 mM MgCl2, 2 mM CaCl2, 5 mM NaHCO3, 20 mM HEPES, pH7.4) and the cells were incubated at 23° C. for 4 h. Emission from photoproteins in the cells was measured using a Mithras LB 940 plate luminometer. The ATP was injected at a given concentration to trigger an intracellular Ca^2+ response in the cells and the measurement started immediately. The bioluminescence was integrated over a time interval of 0.05 s for 30 s.
row,Molecule,Z-factor
1,B1,0.82
2,B2,0.67
3,B3,0.76
4,B4,0.68

# Where a chain is given by its changes, count along the chain named. In names and notes the source's numbering stands.
